# Experimental data published in the supplement of paper PMC10032668.
# By UniProt entry, the sequences of proteins in these tests, tags left out.
# DIDO1, Q9BTC0, UniProt Q9BTC0, whole entry: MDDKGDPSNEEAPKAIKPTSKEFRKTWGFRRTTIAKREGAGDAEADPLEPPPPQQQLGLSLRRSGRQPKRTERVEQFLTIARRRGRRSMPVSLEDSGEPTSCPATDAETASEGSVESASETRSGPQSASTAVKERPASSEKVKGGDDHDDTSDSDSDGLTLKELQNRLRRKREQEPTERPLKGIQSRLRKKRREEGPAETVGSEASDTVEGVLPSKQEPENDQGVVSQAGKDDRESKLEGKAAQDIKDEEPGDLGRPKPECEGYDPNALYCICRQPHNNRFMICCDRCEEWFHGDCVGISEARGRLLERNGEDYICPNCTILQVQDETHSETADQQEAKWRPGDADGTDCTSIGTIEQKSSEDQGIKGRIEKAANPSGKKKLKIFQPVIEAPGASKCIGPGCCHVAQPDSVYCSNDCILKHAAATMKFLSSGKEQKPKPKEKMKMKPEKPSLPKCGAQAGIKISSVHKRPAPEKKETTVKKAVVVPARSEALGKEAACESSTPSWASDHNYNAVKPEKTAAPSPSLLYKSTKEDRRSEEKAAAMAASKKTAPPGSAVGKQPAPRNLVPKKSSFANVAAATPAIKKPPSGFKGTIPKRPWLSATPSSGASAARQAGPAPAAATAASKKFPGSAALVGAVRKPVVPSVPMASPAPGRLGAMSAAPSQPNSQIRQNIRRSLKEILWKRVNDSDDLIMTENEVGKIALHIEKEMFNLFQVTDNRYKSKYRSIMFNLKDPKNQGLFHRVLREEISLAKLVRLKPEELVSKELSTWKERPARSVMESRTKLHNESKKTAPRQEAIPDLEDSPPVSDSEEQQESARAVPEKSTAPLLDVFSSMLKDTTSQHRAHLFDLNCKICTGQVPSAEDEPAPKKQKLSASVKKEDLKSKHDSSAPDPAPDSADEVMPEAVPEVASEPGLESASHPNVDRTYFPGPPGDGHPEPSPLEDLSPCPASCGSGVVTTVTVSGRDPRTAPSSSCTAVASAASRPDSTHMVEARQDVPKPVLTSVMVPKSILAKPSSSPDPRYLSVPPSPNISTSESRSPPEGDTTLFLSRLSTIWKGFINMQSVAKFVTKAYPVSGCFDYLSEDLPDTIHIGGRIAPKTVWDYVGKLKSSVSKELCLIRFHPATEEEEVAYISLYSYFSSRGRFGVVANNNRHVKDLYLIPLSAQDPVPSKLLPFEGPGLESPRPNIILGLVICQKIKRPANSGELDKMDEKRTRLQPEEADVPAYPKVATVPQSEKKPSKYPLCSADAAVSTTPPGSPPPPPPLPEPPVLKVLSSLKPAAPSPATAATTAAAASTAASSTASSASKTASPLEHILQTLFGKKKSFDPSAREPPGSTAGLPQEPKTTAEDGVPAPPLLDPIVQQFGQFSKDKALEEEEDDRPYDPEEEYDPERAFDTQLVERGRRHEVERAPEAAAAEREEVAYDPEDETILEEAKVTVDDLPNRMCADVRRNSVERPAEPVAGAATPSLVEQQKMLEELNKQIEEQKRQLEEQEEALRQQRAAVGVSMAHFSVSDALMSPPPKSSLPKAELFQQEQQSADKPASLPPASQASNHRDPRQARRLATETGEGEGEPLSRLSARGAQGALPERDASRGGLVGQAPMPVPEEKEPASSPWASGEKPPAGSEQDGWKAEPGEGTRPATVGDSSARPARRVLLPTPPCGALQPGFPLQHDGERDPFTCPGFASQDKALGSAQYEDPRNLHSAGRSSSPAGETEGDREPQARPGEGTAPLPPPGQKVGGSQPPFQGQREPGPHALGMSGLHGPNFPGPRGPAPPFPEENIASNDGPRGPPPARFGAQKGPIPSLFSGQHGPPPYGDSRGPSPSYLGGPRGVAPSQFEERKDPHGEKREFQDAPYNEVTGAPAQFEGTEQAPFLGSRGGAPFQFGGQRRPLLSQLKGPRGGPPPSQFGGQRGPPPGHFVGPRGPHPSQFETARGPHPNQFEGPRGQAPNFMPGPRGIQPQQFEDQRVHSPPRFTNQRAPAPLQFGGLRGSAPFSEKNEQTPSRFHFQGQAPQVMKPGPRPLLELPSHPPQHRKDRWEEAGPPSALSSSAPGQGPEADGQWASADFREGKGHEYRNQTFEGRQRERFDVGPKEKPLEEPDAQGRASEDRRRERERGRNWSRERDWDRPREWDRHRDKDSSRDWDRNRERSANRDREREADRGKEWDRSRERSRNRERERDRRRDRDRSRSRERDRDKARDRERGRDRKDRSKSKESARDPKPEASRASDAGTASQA
# DNAJB1, P25685, UniProt P25685, whole entry: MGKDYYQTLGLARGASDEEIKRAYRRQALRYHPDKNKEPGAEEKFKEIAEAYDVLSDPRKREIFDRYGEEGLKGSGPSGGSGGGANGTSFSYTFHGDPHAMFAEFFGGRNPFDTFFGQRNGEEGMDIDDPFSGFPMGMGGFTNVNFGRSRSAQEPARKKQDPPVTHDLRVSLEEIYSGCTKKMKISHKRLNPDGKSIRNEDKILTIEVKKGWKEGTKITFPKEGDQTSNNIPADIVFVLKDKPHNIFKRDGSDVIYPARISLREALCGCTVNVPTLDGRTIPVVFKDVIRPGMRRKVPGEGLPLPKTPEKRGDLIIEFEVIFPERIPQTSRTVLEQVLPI
# ± gives the standard deviation of the averaged measurements. The list shows a part of the results. Only hits are listed; about a third recur on repeated control peptides.
# How the values were obtained:
# Test in all cases: PRISMA enrichment of interactor (LFQ) in peptide spot vs all other peptide spots (log2 fold change); higher = stronger / more specific binding of the interactor to the peptide
# [1] = molecular target: CSTF3, Q12996
# Description: (§1)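 PRISMA: 221 full-length sORF-encoded peptides (3-15 aa), plus SOS1/GLUT1 control peptides, were spot-synthesized on cellulose membranes in triplicate. Membranes were incubated with HEK293T lysate, and bound proteins were identified by LC-MS/MS with LFQ. Enrichment is the log2 fold change versus all other peptide spots; only significant interactors are listed (cutoff c=6, x0=2.8).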
# [2] = molecular target: CXorf56, Q9H5V9
# Description: as §1
# [3] = molecular target: DAZAP1, Q96EP5
# Description: as §1
# [4] = molecular target: DCXR, Q7Z4W1
# Description: as §1
# [5] = molecular target: DDX1, Q92499
# Description: as §1
# [6] = molecular target: DDX18, Q9NVP1
# Description: as §1
# [7] = molecular target: DDX27, Q96GQ7
# Description: as §1
# [8] = molecular target: DDX49, Q9Y6V7
# Description: as §1
# [9] = molecular target: DDX6, P26196
# Description: as §1
# [10] = molecular target: DECR2, Q9NUI1
# Description: as §1
# [11] = molecular target: DERPC, P0CG12
# Description: as §1
# [12] = molecular target: DHX30, Q7L2E3
# Description: as §1
# [13] = molecular target: DIDO1, Q9BTC0
# Description: as §1
# [14] = molecular target: DNAJA3, Q96EY1
# Description: as §1
# [15] = molecular target: DNAJB1, P25685
# Description: as §1
# [16] = molecular target: DNAJB11, Q9UBS4
# Description: as §1
# [17] = molecular target: DNAJB12, Q9NXW2
# Description: as §1
# [18] = molecular target: DRG1, Q9Y295
# Description: as §1
# [19] = molecular target: DSP, P15924
# Description: as §1
# [20] = molecular target: DUSP11, O75319
# Description: as §1
# [21] = molecular target: EDF1, O60869
# Description: as §1
# [22] = molecular target: EEFSEC, P57772
# Description: as §1
# [23] = molecular target: EFHD2, Q96C19
# Description: as §1
# [24] = molecular target: EHHADH, Q08426
# Description: as §1
# [25] = molecular target: EMG1, Q92979
# Description: as §1
# [26] = molecular target: ERCC3, P19447
# Description: as §1
# [27] = molecular target: EWSR1, Q01844
# Description: as §1
# [28] = molecular target: FAM136A, Q96C01
# Description: as §1
# [29] = molecular target: FAM50A, Q14320
# Description: as §1
# [30] = molecular target: FAM91A1, Q658Y4
# Description: as §1
# [31] = molecular target: FAM98A, Q8NCA5
# Description: as §1
# [32] = molecular target: FAM98B, Q52LJ0
# Description: as §1
# [33] = molecular target: FBL, P22087
# Description: as §1
# [34] = molecular target: FHL1, Q13642
# Description: as §1
# [35] = molecular target: FTSJ3, Q8IY81
# Description: as §1
# [36] = molecular target: FUBP1, Q96AE4
# Description: as §1
# [37] = molecular target: FUBP3, Q96I24
# Description: as §1
# [38] = molecular target: FUS, P35637
# Description: as §1
# [39] = molecular target: G3BP1, Q13283
# Description: as §1
# [40] = molecular target: G3BP2, Q9UN86
# Description: as §1
# [41] = molecular target: GABARAPL2, P60520
# Description: as §1
# [42] = molecular target: GMPPA, Q96IJ6
# Description: as §1
# [43] = molecular target: GSK3B, P49841
# Description: as §1
# [44] = molecular target: GTPBP1, O00178
# Description: as §1
# [45] = molecular target: HCFC1, P51610
# Description: as §1
binder,measurement,setting,value
MVDNFYF [ASPN],PRISMA enrichment of interactor (log2),[1],7.7
same,PRISMA enrichment of interactor (log2),[2],6.77
same,PRISMA enrichment of interactor (log2),[3],7.45
same,PRISMA enrichment of interactor (log2),[4],4.85
same,PRISMA enrichment of interactor (log2),[5],6.62
same,PRISMA enrichment of interactor (log2),[6],4.67
same,PRISMA enrichment of interactor (log2),[7],4.9
same,PRISMA enrichment of interactor (log2),[8],6.4
same,PRISMA enrichment of interactor (log2),[9],5.96
same,PRISMA enrichment of interactor (log2),[10],5.69
same,PRISMA enrichment of interactor (log2),[11],7.54
same,PRISMA enrichment of interactor (log2),[12],4.98
same,PRISMA enrichment of interactor (log2),[13],5.11
same,PRISMA enrichment of interactor (log2),[14],6.02
same,PRISMA enrichment of interactor (log2),[15],6.34
same,PRISMA enrichment of interactor (log2),[16],5.96
same,PRISMA enrichment of interactor (log2),[17],4.16
same,PRISMA enrichment of interactor (log2),[18],4.86
same,PRISMA enrichment of interactor (log2),[19],6.34
same,PRISMA enrichment of interactor (log2),[20],4.44
same,PRISMA enrichment of interactor (log2),[21],4.72
same,PRISMA enrichment of interactor (log2),[22],4.49
same,PRISMA enrichment of interactor (log2),[23],4.23
same,PRISMA enrichment of interactor (log2),[24],6.26
same,PRISMA enrichment of interactor (log2),[25],5.81
same,PRISMA enrichment of interactor (log2),[26],3.85
same,PRISMA enrichment of interactor (log2),[27],5.55
same,PRISMA enrichment of interactor (log2),[28],4.56
same,PRISMA enrichment of interactor (log2),[29],4.89
same,PRISMA enrichment of interactor (log2),[30],5.58
same,PRISMA enrichment of interactor (log2),[31],5.69
same,PRISMA enrichment of interactor (log2),[32],3.91
same,PRISMA enrichment of interactor (log2),[33],4.88
same,PRISMA enrichment of interactor (log2),[34],4.22
same,PRISMA enrichment of interactor (log2),[35],4.74
same,PRISMA enrichment of interactor (log2),[36],5.56 ± 2.1
same,PRISMA enrichment of interactor (log2),[37],6.7
same,PRISMA enrichment of interactor (log2),[38],5.67
same,PRISMA enrichment of interactor (log2),[39],4.61
same,PRISMA enrichment of interactor (log2),[40],6.04
same,PRISMA enrichment of interactor (log2),[41],6.13
same,PRISMA enrichment of interactor (log2),[42],4.41
same,PRISMA enrichment of interactor (log2),[43],5.97
same,PRISMA enrichment of interactor (log2),[44],6.7
same,PRISMA enrichment of interactor (log2),[45],5.66

# Looked up one by one from above, two records:
binder,measurement,setting,value
MVDNFYF [ASPN],PRISMA enrichment of interactor (log2),[28],4.56
same,PRISMA enrichment of interactor (log2),[6],4.67
